# Experimental data from the supplement of paper PMC8728848.
# The list shows a part of the results.
# Experiments:
# Assay in all cases: glycan array binding signal (z-score within array); higher = stronger binding
# Conditions in all cases: glycan notation: IUPAC condensed, linker removed
# [1] = biological target: GalNAc(b1-4)GlcNAc(b1-2)Man
# Outline: (§1)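 Glycan array data came from 3228 arrays in the Consortium for Functional Glycomics database, and only arrays with an available protein sequence were kept. Glycan names were put into IUPAC-condensed notation, and columns mapping to the same glycan were averaged. The binding signal is a within-array Z-score, averaged across arrays of one protein sequence run at different concentrations or buffers and across linkers. A negative Z-score can be read as non-binding.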
# [2] = biological target: GalNAc(b1-4)GlcNAc(b1-2)Man(a1-3)[GalNAc(b1-4)GlcNAc(b1-2)Man(a1-6)]Man(b1-4)GlcNAc(b1-4)GlcNAc
# Outline: as §1
# [3] = biological target: GalNAc(b1-4)GlcNAc(b1-3)GalNAc(b1-4)GlcNAc
# Outline: as §1
# [4] = biological target: GalNAc(b1-4)GlcNAc6S
# Outline: as §1
# [5] = biological target: GalNAc(b1-6)GalNAc
# Outline: as §1
# [6] = biological target: GalNAc3S(b1-4)GlcNAc
# Outline: as §1
# [7] = biological target: GalNAc3S(b1-4)GlcNAc3S
# Outline: as §1
# [8] = biological target: GalNAc3S(b1-4)[Fuc(a1-3)]GlcNAc
# Outline: as §1
# [9] = biological target: GalNAc4S6S(b1-4)GlcNAc
# Outline: as §1
# [10] = biological target: GalNAc6S(b1-4)GlcNAc
# Outline: as §1
# [11] = biological target: Glc(a1-4)Glc
# Outline: as §1
# [12] = biological target: Glc(a1-4)Glc(a1-4)Glc(a1-4)Glc
# Outline: as §1
# [13] = biological target: Glc(a1-6)Glc(a1-6)Glc
# Outline: as §1
# [14] = biological target: Glc(a1-6)Glc(a1-6)Glc(a1-6)Glc
# Outline: as §1
# [15] = biological target: Glc(b1-4)Glc
# Outline: as §1
# [16] = biological target: Glc(b1-6)Glc
# Outline: as §1
# [17] = biological target: GlcA(b1-3)Gal
# Outline: as §1
# [18] = biological target: GlcA(b1-3)GlcNAc
# Outline: as §1
# [19] = biological target: GlcA(b1-6)Gal
# Outline: as §1
# [20] = biological target: GlcA3S(b1-3)Gal(b1-4)GlcNAc(b1-2)Man
# Outline: as §1
# [21] = biological target: GlcA3S(b1-3)Gal(b1-4)GlcNAc(b1-3)Gal(b1-4)Glc
# Outline: as §1
# [22] = biological target: GlcNAc(a1-3)Gal(b1-4)GlcNAc
# Outline: as §1
# [23] = biological target: GlcNAc(a1-4)Gal(b1-3)GlcNAc
# Outline: as §1
# [24] = biological target: GlcNAc(a1-4)Gal(b1-4)GalNAc
# Outline: as §1
# [25] = biological target: GlcNAc(a1-4)Gal(b1-4)GlcNAc
# Outline: as §1
# [26] = biological target: GlcNAc(a1-4)Gal(b1-4)GlcNAc(b1-3)Gal(b1-4)Glc
# Outline: as §1
# [27] = biological target: GlcNAc(a1-4)Gal(b1-4)GlcNAc(b1-3)Gal(b1-4)GlcNAc
# Outline: as §1
# [28] = biological target: GlcNAc(a1-4)Gal(b1-4)GlcNAc(b1-3)Gal(b1-4)GlcNAc(b1-3)Gal(b1-4)GlcNAc
# Outline: as §1
# [29] = biological target: GlcNAc(a1-4)Gal(b1-4)GlcNAc(b1-3)Gal(b1-4)[Fuc(a1-3)]GlcNAc(b1-3)Gal(b1-4)[Fuc(a1-3)]GlcNAc
# Outline: as §1
# [30] = biological target: GlcNAc(a1-6)Gal(b1-4)GlcNAc
# Outline: as §1
# [31] = biological target: GlcNAc(b1-2)Gal(b1-3)GalNAc
# Outline: as §1
# [32] = biological target: GlcNAc(b1-2)Man(a1-3)[GlcNAc(b1-2)Man(a1-6)]Man(b1-4)GlcNAc(b1-4)GlcNAc
# Outline: as §1
# [33] = biological target: GlcNAc(b1-2)Man(a1-3)[GlcNAc(b1-2)Man(a1-6)]Man(b1-4)GlcNAc(b1-4)[Fuc(a1-6)]GlcNAc
# Outline: as §1
# [34] = biological target: GlcNAc(b1-2)Man(a1-3)[GlcNAc(b1-4)][GlcNAc(b1-2)Man(a1-6)]Man(b1-4)GlcNAc(b1-4)GlcNAc
# Outline: as §1
# [35] = biological target: GlcNAc(b1-2)Man(a1-3)[GlcNAc(b1-4)][GlcNAc(b1-2)Man(a1-6)]Man(b1-4)GlcNAc(b1-4)[Fuc(a1-6)]GlcNAc
# Outline: as §1
# [36] = biological target: GlcNAc(b1-2)[GlcNAc(b1-4)]Man(a1-3)[GlcNAc(b1-2)Man(a1-6)]Man(b1-4)GlcNAc(b1-4)GlcNAc
# Outline: as §1
# [37] = biological target: GlcNAc(b1-2)[GlcNAc(b1-4)]Man(a1-3)[GlcNAc(b1-4)][GlcNAc(b1-2)Man(a1-6)]Man(b1-4)GlcNAc(b1-4)GlcNAc
# Outline: as §1
binder,measurement,setting,value
"AntigenI/IIA3VP1 (Streptococcus mutans), C9E3B4 (protein) AANEADYQAKLTAYQTELARVQKANADAKAAYEAAVAANNAANAALTAENTAIKKRNADAKADYEAKLAKYQADLAKYQKDLADYPVKLKAYEDEQASIKAALAELEKHKNEDGNLTEPSAQNLVYDLEPNANLSLTTDGKFLKASAVDDAFSKSTSKAKYDQKILQLDDLDITNLEQSNDVASSMELYGNFGDKAGWSTTVSNNSQVKWGSVLLERGQSATATYTNLQNSYYNGKKISKIVYKYTVDPKSKFQGQKVWLGIFTDPTLGVFASAYTGQVEKNTSIFIKNEFTFYDEDGKPINFDNALLSVASLNREHNSIEMAKDYSGKFVKISGSSIGEKNGMIYATDTLNFKQGEGGSRWTMYKNSQAGSGWDSSDAPNSWYGAGAIKMSGPNNYVTVGATSATNVMPVSDMPVVPGKDNTDGKKPNIWYSLNGKIRAVNVPKVTKEKPTPPVKPTAPTKPTYETEKPLKPAPVAPNYEKEPTPPTRLEHHHHHH",glycan array binding signal (z-score),[1],-0.797
same,glycan array binding signal (z-score),[2],-0.868
same,glycan array binding signal (z-score),[3],-0.774
same,glycan array binding signal (z-score),[4],-1.3
same,glycan array binding signal (z-score),[5],-0.455
same,glycan array binding signal (z-score),[6],-1.46
same,glycan array binding signal (z-score),[7],-0.649
same,glycan array binding signal (z-score),[8],-0.56
same,glycan array binding signal (z-score),[9],-0.462
same,glycan array binding signal (z-score),[10],0.953
same,glycan array binding signal (z-score),[11],-0.184
same,glycan array binding signal (z-score),[12],-1.19
same,glycan array binding signal (z-score),[13],-0.587
same,glycan array binding signal (z-score),[14],0.177
same,glycan array binding signal (z-score),[15],-0.227
same,glycan array binding signal (z-score),[16],-0.364
same,glycan array binding signal (z-score),[17],-1.1
same,glycan array binding signal (z-score),[18],-0.575
same,glycan array binding signal (z-score),[19],0.669
same,glycan array binding signal (z-score),[20],-1.08
same,glycan array binding signal (z-score),[21],-0.669
same,glycan array binding signal (z-score),[22],-0.724
same,glycan array binding signal (z-score),[23],-0.218
same,glycan array binding signal (z-score),[24],-0.793
same,glycan array binding signal (z-score),[25],-0.916
same,glycan array binding signal (z-score),[26],0.082
same,glycan array binding signal (z-score),[27],1.47
same,glycan array binding signal (z-score),[28],-0.892
same,glycan array binding signal (z-score),[29],0.07
same,glycan array binding signal (z-score),[30],0.177
same,glycan array binding signal (z-score),[31],-1.06
same,glycan array binding signal (z-score),[32],-0.622
same,glycan array binding signal (z-score),[33],-0.727
same,glycan array binding signal (z-score),[34],-1.11
same,glycan array binding signal (z-score),[35],1.46
same,glycan array binding signal (z-score),[36],-0.123
same,glycan array binding signal (z-score),[37],-1.35

# Reprinted at random: 3 entries already listed
binder,measurement,setting,value
"AntigenI/IIA3VP1 (Streptococcus mutans), C9E3B4 (protein) AANEADYQAKLTAYQTELARVQKANADAKAAYEAAVAANNAANAALTAENTAIKKRNADAKADYEAKLAKYQADLAKYQKDLADYPVKLKAYEDEQASIKAALAELEKHKNEDGNLTEPSAQNLVYDLEPNANLSLTTDGKFLKASAVDDAFSKSTSKAKYDQKILQLDDLDITNLEQSNDVASSMELYGNFGDKAGWSTTVSNNSQVKWGSVLLERGQSATATYTNLQNSYYNGKKISKIVYKYTVDPKSKFQGQKVWLGIFTDPTLGVFASAYTGQVEKNTSIFIKNEFTFYDEDGKPINFDNALLSVASLNREHNSIEMAKDYSGKFVKISGSSIGEKNGMIYATDTLNFKQGEGGSRWTMYKNSQAGSGWDSSDAPNSWYGAGAIKMSGPNNYVTVGATSATNVMPVSDMPVVPGKDNTDGKKPNIWYSLNGKIRAVNVPKVTKEKPTPPVKPTAPTKPTYETEKPLKPAPVAPNYEKEPTPPTRLEHHHHHH",glycan array binding signal (z-score),[36],-0.123
same,glycan array binding signal (z-score),[13],-0.587
same,glycan array binding signal (z-score),[34],-1.11
